Experimental data reported in the supplement of paper PMC7666118.
The list shows a part of the results.

Protein sequences, listed by entry. Tags and fused reporters are not part of them. Lines headed by an entry give the natural chain unless they say otherwise; changes in a name come on top.
UniProt P40925: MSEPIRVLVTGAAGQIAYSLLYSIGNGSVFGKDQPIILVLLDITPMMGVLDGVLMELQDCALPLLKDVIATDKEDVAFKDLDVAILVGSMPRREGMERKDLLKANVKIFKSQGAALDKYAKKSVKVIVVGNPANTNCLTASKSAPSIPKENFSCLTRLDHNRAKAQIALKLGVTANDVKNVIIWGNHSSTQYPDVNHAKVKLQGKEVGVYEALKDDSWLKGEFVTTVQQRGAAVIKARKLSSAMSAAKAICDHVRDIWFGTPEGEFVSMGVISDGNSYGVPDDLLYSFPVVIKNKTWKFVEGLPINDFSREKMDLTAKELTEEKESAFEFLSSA
UniProt Q9NS86: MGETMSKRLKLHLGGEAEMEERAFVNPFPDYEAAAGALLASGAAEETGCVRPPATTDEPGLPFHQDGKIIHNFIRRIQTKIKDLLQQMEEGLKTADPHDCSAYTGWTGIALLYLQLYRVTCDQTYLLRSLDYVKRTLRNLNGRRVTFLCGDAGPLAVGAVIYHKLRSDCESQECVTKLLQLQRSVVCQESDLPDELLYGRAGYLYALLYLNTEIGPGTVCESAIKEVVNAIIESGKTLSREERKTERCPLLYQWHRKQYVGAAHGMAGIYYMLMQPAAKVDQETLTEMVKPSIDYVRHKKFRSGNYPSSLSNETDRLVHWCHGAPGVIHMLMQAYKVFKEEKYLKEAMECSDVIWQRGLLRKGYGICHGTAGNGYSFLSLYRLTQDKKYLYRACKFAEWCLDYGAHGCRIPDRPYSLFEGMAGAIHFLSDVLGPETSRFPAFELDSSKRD
UniProt P01130: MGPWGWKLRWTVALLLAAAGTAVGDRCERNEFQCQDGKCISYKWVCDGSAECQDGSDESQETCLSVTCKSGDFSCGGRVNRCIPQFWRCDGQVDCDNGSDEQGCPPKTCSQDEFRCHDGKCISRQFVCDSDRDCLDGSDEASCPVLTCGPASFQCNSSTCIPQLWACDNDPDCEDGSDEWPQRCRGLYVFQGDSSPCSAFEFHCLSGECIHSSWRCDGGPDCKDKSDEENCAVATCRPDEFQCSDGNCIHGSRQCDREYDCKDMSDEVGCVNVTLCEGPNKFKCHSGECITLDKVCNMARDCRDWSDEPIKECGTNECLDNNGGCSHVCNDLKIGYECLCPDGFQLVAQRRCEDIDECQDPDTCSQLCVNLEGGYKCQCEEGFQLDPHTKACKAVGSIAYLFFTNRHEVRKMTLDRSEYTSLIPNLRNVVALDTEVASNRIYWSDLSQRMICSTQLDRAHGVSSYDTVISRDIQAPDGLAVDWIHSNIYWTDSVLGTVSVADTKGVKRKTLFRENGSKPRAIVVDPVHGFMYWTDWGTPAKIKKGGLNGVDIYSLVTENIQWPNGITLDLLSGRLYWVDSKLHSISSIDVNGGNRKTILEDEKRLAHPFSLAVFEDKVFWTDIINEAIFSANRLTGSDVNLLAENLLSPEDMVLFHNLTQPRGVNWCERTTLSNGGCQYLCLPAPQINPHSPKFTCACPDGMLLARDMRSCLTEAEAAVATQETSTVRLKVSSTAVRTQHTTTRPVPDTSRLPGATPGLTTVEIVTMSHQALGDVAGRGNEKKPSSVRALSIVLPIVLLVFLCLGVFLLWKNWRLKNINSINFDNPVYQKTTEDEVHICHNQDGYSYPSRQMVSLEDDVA
UniProt Q9UHA4, whole entry: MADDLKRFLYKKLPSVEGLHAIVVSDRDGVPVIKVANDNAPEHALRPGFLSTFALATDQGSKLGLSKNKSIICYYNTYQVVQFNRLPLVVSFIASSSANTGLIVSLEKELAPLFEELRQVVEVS
UniProt P49137, whole entry, looked up: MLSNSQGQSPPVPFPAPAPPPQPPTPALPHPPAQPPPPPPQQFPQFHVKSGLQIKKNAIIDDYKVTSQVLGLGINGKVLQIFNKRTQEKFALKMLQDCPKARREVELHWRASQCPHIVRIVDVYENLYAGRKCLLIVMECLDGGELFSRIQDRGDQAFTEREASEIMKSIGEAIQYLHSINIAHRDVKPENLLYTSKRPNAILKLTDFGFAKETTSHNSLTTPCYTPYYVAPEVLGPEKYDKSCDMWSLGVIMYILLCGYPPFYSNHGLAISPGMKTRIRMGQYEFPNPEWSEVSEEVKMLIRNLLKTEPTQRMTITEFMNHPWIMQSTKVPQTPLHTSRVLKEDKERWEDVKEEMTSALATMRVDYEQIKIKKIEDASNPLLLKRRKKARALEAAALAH
UniProt Q16706: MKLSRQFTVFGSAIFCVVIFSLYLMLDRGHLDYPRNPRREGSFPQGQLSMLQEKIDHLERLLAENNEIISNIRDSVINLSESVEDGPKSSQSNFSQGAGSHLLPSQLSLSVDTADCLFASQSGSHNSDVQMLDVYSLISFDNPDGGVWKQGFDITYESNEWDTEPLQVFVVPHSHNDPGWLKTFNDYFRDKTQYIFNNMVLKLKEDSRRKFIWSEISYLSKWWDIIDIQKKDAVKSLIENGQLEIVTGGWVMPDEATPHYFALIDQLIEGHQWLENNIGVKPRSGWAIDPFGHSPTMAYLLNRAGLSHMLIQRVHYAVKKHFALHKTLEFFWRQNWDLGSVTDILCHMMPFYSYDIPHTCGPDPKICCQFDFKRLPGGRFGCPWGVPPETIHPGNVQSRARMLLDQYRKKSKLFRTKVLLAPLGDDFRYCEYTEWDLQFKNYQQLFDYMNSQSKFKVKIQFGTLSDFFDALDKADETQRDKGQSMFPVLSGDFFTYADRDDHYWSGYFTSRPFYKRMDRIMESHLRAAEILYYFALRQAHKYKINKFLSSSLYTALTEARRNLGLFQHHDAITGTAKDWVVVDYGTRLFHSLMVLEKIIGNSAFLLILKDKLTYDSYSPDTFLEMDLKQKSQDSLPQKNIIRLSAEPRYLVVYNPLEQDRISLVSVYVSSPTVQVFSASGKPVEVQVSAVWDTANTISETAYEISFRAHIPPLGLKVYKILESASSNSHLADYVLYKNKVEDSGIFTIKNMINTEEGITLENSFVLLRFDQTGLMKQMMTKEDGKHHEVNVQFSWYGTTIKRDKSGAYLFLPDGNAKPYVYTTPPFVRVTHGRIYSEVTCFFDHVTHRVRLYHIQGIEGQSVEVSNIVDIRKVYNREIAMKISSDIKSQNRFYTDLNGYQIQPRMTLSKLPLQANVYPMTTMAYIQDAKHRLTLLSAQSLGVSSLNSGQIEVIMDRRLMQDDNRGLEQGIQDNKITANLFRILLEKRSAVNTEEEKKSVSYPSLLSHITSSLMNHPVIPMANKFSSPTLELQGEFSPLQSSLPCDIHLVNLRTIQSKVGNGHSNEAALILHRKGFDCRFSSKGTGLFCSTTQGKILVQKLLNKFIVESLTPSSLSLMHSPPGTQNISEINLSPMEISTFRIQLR
UniProt P83111: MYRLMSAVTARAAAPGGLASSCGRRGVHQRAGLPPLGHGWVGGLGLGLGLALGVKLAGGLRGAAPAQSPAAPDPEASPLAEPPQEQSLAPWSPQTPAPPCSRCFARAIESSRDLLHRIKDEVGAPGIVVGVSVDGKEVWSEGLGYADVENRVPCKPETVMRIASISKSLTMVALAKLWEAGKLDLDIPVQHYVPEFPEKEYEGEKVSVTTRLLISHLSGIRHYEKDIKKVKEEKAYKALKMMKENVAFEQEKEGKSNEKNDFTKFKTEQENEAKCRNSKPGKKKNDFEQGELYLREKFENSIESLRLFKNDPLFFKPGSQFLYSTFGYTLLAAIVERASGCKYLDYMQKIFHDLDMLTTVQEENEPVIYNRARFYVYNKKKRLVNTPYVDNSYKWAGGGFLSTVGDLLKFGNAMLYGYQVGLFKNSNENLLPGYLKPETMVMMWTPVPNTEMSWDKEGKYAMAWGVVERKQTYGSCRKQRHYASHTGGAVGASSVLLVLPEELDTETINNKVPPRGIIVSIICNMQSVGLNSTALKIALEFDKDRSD
UniProt Q16644, whole entry, looked up: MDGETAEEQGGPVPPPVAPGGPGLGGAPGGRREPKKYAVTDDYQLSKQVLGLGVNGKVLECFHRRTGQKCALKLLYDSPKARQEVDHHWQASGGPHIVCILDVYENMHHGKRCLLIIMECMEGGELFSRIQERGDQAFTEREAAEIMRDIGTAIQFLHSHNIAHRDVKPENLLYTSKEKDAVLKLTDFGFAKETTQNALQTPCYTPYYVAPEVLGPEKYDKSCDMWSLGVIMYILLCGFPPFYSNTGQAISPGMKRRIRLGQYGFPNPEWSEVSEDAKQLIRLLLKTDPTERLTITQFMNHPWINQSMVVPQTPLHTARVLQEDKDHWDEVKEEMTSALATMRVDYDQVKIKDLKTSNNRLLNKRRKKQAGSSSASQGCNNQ
UniProt Q96AG4: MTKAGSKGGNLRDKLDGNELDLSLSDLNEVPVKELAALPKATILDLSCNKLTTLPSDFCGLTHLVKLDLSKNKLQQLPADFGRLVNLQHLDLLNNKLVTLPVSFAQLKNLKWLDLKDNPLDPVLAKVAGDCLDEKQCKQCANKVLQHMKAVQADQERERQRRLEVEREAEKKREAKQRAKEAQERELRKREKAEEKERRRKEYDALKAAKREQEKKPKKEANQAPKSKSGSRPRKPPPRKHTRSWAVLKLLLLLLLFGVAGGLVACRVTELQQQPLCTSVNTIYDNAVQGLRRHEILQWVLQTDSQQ
UniProt Q9Y4K4: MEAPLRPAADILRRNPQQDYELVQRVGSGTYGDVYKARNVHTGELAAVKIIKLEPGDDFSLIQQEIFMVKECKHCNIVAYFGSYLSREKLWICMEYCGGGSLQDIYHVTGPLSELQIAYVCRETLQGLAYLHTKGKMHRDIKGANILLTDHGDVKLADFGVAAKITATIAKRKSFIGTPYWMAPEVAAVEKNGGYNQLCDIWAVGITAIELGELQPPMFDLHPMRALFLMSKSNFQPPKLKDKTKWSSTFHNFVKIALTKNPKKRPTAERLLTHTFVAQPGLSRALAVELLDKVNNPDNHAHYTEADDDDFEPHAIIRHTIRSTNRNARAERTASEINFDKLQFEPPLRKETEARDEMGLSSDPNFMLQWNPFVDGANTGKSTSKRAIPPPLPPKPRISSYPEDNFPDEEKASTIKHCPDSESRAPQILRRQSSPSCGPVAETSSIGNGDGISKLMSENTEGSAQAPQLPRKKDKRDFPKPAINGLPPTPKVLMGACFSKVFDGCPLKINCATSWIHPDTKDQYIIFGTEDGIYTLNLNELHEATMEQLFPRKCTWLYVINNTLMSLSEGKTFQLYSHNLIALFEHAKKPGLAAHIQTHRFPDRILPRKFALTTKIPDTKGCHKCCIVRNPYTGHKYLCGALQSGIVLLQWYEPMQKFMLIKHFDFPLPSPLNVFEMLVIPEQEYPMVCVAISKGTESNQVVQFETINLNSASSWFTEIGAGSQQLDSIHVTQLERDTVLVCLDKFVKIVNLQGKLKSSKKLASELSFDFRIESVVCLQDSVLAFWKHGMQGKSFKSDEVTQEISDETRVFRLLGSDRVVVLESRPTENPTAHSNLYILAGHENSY
UniProt Q9Y5V3: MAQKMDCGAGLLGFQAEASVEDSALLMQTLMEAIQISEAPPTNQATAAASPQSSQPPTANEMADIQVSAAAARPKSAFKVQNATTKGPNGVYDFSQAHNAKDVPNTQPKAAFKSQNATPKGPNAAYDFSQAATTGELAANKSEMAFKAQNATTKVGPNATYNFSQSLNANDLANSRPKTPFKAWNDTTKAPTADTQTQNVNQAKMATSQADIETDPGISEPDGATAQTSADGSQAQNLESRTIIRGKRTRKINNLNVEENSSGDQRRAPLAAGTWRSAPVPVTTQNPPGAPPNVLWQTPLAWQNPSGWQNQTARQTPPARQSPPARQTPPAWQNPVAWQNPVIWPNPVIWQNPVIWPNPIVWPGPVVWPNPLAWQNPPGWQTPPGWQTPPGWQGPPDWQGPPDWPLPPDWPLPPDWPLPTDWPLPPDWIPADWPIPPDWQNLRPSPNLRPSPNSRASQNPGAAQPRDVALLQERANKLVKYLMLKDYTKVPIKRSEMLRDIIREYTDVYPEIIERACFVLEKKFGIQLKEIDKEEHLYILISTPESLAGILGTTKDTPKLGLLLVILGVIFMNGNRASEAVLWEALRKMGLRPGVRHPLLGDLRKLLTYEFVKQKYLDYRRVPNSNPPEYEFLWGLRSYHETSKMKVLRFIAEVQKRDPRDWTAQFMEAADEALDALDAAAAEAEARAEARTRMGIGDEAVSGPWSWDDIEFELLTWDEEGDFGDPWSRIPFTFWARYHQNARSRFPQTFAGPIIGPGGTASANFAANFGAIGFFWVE
UniProt Q6P1Q0: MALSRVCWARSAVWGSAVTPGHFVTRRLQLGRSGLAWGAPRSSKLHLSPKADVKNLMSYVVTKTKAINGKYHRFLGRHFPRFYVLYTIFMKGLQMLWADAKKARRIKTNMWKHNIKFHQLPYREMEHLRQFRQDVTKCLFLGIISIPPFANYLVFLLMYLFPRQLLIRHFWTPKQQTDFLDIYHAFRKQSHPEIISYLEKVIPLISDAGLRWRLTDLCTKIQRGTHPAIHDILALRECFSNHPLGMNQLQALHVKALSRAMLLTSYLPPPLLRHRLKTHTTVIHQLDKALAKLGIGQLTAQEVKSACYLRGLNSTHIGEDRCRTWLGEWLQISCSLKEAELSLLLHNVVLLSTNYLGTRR

What follows are targets tested with COc1ccc(Cn2ccc3cc(C)c(C(=O)NO)cc32)cc1 (assay: dose-dependent thermal stabilisation call (2D-TPP, DLPTP, 10% FDR) (binary (1 = stabilised)); higher = stabilised by the compound). Conditions: system: HL-60 intact cells; concentration range 0.04-10 µM.
Protocol: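 2D thermal proteome profiling in intact HL-60 cells treated with BRD-3811 (0, 0.04, 0.29, 2, 10 uM) for 90 min at 37 C, then heated 3 min at one of 12 temperatures (42-63.9 C). Soluble protein was quantified by TMT10 MS. The value is the DLPTP call of the paper: dose-dependent thermal stabilisation over all temperatures at 10% FDR (F-test of a dose-response against a flat model); one experiment, one call per tested protein.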

Row | Target | dose-dependent thermal stabilisation call
1 | MDH1 (UniProt P40925) | active: 1
2 | MAT2A (UniProt P31153) | inactive: 0
3 | ME2 (UniProt P23368) | active: 1
4 | MANEAL (UniProt Q5VSG8) | inactive: 0
5 | MAZ (UniProt P56270) | inactive: 0
6 | LRRC33 (UniProt Q86YC3) | inactive: 0
7 | LRRC41 (UniProt Q15345) | inactive: 0
8 | LANCL2 (UniProt Q9NS86) | inactive: 0
9 | LDLR (UniProt P01130) | inactive: 0
10 | MAN1C1 (UniProt Q9NR34) | inactive: 0
11 | LSM12 (UniProt Q3MHD2) | inactive: 0
12 | LOC348262 | inactive: 0
13 | MAPKSP1 (UniProt Q9UHA4) | inactive: 0
14 | LEPREL2 (UniProt Q8IVL6) | inactive: 0
15 | LASP1 (UniProt Q14847) | inactive: 0
16 | LMAN2L (UniProt Q9H0V9) | inactive: 0
17 | LOC26010 | inactive: 0
18 | LENG1 (UniProt Q96BZ8) | inactive: 0

Row | Target | dose-dependent thermal stabilisation call
19 | MAPKAPK2 (UniProt P49137) | inactive: 0
20 | LOC283951 | inactive: 0
21 | MAN2A1 (UniProt Q16706) | inactive: 0
22 | LACTB (UniProt P83111) | inactive: 0
23 | MAPKAPK3 (UniProt Q16644) | inactive: 0
24 | LOC642393 | inactive: 0
25 | LRRC59 (UniProt Q96AG4) | inactive: 0
26 | LYPLA2 (UniProt O95372) | inactive: 0
27 | MAP4K5 (UniProt Q9Y4K4) | inactive: 0
28 | LOC100130633 | inactive: 0
29 | LSM14B (UniProt Q9BX40) | inactive: 0
30 | MAGED1 (UniProt Q9Y5V3) | inactive: 0
31 | MCM6 (UniProt Q14566) | inactive: 0
32 | MATK (UniProt P42679) | inactive: 0
33 | LARP1 (UniProt Q6PKG0) | inactive: 0
34 | MAP3K7 (UniProt O43318) | inactive: 0
35 | LETMD1 (UniProt Q6P1Q0) | inactive: 0
36 | LOH12CR1 (UniProt Q969J3) | active: 1

Retrieved one by one from the list above, two records:
Row | Target | dose-dependent thermal stabilisation call
35 | LETMD1 (UniProt Q6P1Q0) | inactive: 0
28 | LOC100130633 | inactive: 0
